# PubChem BioAssay AID1224826 – NIAID | 2016
# Aim: 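Regulators of Tlr4 signalling leading to Tnf-alpha expression in macrophages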 (primary screen)
# Cells: RAW264.7 G9 macrophages from mouse bearing reporters for p65 (GFP) and the Tnf promoter (mCherry)
# Knock-down reagent: siRNA pool against mouse genes, 100 nM
# Timing: 16 h of LPS stimulation, after 2 days of siRNA transfection
# Treatment: bacterial lipopolysaccharide (Salmonella minnesota R595), 10 ng/ml
# Read-out: 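Nuclear mCherry signal of the Tnf promoter reporter measured by imaging after background removal, scaled to each plate median and turned into robust z-scores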
# Reading the numbers: Tnf reporter robust z-score: higher = stronger Tnf promoter reporter signal after LPS; Tnf reporter intensity: higher = stronger Tnf promoter reporter signal
# Active means: 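Called active when robust z-score is at most -1.3, matching the median of the Tlr4 knock-down control, or over 3; control wells and wells with under 50 cells never active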
# Meaning of the calls: active = Tnf reporter clearly lowered or raised; inactive = no clear change in Tnf reporter
# The deposit covers about 17,000 reagents; shown is an unselected part. In the full data, about 1,110 (6.6%) got an active call. 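Active means lowered or raised reporter signal; replicate intensities are raw and not normalised per plate.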
Target gene,Tnf reporter robust z-score,fewer than 50 cells in well,"Tnf reporter intensity, replicate 1","Tnf reporter intensity, replicate 2",call
Dhfr (GeneID 13361),0.66,enough cells in well,268,267,inactive
Rhox9 (GeneID 104384),,fewer than 50 cells per well; well left out of calls,53.2,17.4,inactive
Srp9 (GeneID 27058),-0.33,enough cells in well,80.7,96,inactive
Gmcl1 (GeneID 23885),0.91,enough cells in well,170,280,inactive
Ifi44 (GeneID 99899),0.05,enough cells in well,157,164,inactive
Fsd1 (GeneID 240121),-0.79,enough cells in well,123,121,inactive
Pramel13 (GeneID 77632),,fewer than 50 cells per well; well left out of calls,232,77.9,inactive
Magt1 (GeneID 67075),2.42,enough cells in well,364,155,inactive
Aoc1l2 (GeneID 69761),-0.64,enough cells in well,244,49.7,inactive
Glud1 (GeneID 14661),-0.26,enough cells in well,233,157,inactive
Slc30a3 (GeneID 22784),0.66,enough cells in well,202,217,inactive
Fbxw17 (GeneID 109082),,fewer than 50 cells per well; well left out of calls,190,82.8,inactive
Fibp (GeneID 58249),-0.49,enough cells in well,212,198,inactive
Or14c41 (GeneID 258850),-1.29,enough cells in well,108,63.5,inactive
Zp3 (GeneID 22788),-0.63,enough cells in well,223,166,inactive
Plekhh2 (GeneID 213556),1.41,enough cells in well,304,277,inactive
Cnksr3 (GeneID 215748),0.02,enough cells in well,236,110,inactive
Itga11 (GeneID 319480),1.36,enough cells in well,412,173,inactive
Prrc2a (GeneID 53761),0,enough cells in well,219,192,inactive

In a second layout: 6 of the entries above.
Target gene	Tnf reporter robust z-score	fewer than 50 cells in well	Tnf reporter intensity, replicate 1	Tnf reporter intensity, replicate 2	call
Rhox9 (GeneID 104384)		fewer than 50 cells per well; well left out of calls	53.2	17.4	inactive
Srp9 (GeneID 27058)	-0.33	enough cells in well	80.7	96	inactive
Gmcl1 (GeneID 23885)	0.91	enough cells in well	170	280	inactive
Ifi44 (GeneID 99899)	0.05	enough cells in well	157	164	inactive
Fsd1 (GeneID 240121)	-0.79	enough cells in well	123	121	inactive
Pramel13 (GeneID 77632)		fewer than 50 cells per well; well left out of calls	232	77.9	inactive

Continued:
Target gene,Tnf reporter robust z-score,fewer than 50 cells in well,"Tnf reporter intensity, replicate 1","Tnf reporter intensity, replicate 2",call
Cyp17a1 (GeneID 13074),0.36,enough cells in well,260,231,inactive
Hoxc4 (GeneID 15423),0.27,enough cells in well,239,224,inactive
Or7e169 (GeneID 258521),1.4,enough cells in well,386,134,inactive
Ibsp (GeneID 15891),1.06,enough cells in well,286,287,inactive
Tspan33 (GeneID 232670),-0.54,enough cells in well,270,47.4,inactive
Plekhf1 (GeneID 72287),-0.59,enough cells in well,116,91,inactive
Dad1 (GeneID 13135),-0.75,enough cells in well,187,154,inactive
Simc1 (GeneID 319719),,fewer than 50 cells per well; well left out of calls,167,63.1,inactive
Plcg1 (GeneID 18803),1.06,enough cells in well,314,278,inactive
Ldaf1 (GeneID 233806),-0.22,enough cells in well,178,163,inactive
Or7a35 (GeneID 259042),0.56,enough cells in well,218,162,inactive
Rbmy (GeneID 19657),0.06,enough cells in well,368,174,inactive
Rgs11 (GeneID 50782),0.86,enough cells in well,393,102,inactive
Ano4 (GeneID 320091),,fewer than 50 cells per well; well left out of calls,83.5,55.8,inactive
Senp5 (GeneID 320213),1.02,enough cells in well,149,122,inactive
Nsun5 (GeneID 100609),-0.24,enough cells in well,164,123,inactive
Nectin4 (GeneID 71740),-0.56,enough cells in well,268,155,inactive
Fam180a (GeneID 208164),,fewer than 50 cells per well; well left out of calls,24.3,89,inactive
Tm9sf1 (GeneID 74140),0.45,enough cells in well,112,128,inactive
Klhl28 (GeneID 66689),-0.88,enough cells in well,1185,112,inactive
Eif4h (GeneID 22384),0.67,enough cells in well,339,264,inactive
